Reference: PubChem BioAssay AID686943 (Drosophila RNAi Screening Center, 2013)
Test: 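Search across the genome for regulators of signalling from receptor tyrosine kinase to ERK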 (primary screen). Cell system: Drosophila S2R+ haemocyte-like cells expressing YFP-tagged ERK (Rolled). Knock-down reagent: long dsRNA against Drosophila genes. Challenge: insulin stimulation versus unstimulated cells; dose and duration not given. Measurement: 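Antibody staining for doubly phosphorylated ERK divided by ERK-YFP signal, as plate z-scores, in insulin-treated and untreated cells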. Scale: replicate 1, z-score of dpERK with insulin: higher = more active ERK per ERK-YFP after insulin.
The deposit covers about 23,000 reagents; this is an unselected part of those that have a named target and a result. 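Extra replicates exist only for a retested subset of genes; insulin dose and duration not given; both raised and lowered dpERK matter.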 Reagents against one gene are numbered here. Names joined by + are all predicted targets of the reagent. Further read-outs or replicates are left out here. The record does not give: the amount of reagent, the time to read-out.

Target gene | dsRNA no. | replicate 1, z-score of dpERK with insulin
pio | 1 | -0.02
CG14126 (retired record) | 1 | 0.31
bbg | 1 | 1.13
bbg | 2 | 0.29
CG31741 | 1 | -0.21
CG33966 | 1 | -0.13
Rrp45 | 1 | -0.76
r-l | 1 | -0.58
r-l | 2 | 0.76
CG11123 | 1 | 0.74
aay | 1 | 0.51
CG14877 | 1 | 0.08
lwr | 1 | -1.02
alpha-Est3 | 1 | -0.02
CG3594 | 1 | 1.03
CG3594 | 2 | 0.87
Cyp6d2 | 1 | -0.37
TwdlL | 1 | 1.39
PVRAP | 1 | 0.11
PVRAP | 2 | -0.79
CG9667 | 1 | 1.69
CG1888 | 1 | -0.12
Ccdc85 | 1 | -0.74
CG32457 | 1 | 1.04
CG32457 | 2 | -0.57
CG14109 | 1 | -0.13
mib2 | 1 | -0.27
esn | 1 | -1.15
esn | 2 | -0.84
esn | 3 | 1.97
CG32944 | 1 | -0.57
CG32944 | 2 | -0.84
CG4278 | 1 | -0.15
atk | 1 | -0.27
atk | 2 | 0.29
MICU1 | 1 | -0.82
hpRNA:CR18854 + IP3K1 | 1 | 1.29
CG42814 | 1 | -0.67
mRpL40 | 1 | 0.38

6 entries from above, sorted by “replicate 1, z-score of dpERK with insulin”, highest first.
Target gene | dsRNA no. | replicate 1, z-score of dpERK with insulin
esn | 3 | 1.97
CG4278 | 1 | -0.15
atk | 1 | -0.27
CG32944 | 1 | -0.57
esn | 2 | -0.84
CG32944 | 2 | -0.84
